According to publication PMC5966253:
Like-named read-outs stand apart in the source and are kept apart here. Results are given in words; binding and its absence hold for the method and conditions named. In cells and extracts the contact can be indirect. Some binding calls cover weakened binding; strength is not graded here.

By UniProt entry, the sequences of proteins in these tests, tags left out.
UniProt P35222: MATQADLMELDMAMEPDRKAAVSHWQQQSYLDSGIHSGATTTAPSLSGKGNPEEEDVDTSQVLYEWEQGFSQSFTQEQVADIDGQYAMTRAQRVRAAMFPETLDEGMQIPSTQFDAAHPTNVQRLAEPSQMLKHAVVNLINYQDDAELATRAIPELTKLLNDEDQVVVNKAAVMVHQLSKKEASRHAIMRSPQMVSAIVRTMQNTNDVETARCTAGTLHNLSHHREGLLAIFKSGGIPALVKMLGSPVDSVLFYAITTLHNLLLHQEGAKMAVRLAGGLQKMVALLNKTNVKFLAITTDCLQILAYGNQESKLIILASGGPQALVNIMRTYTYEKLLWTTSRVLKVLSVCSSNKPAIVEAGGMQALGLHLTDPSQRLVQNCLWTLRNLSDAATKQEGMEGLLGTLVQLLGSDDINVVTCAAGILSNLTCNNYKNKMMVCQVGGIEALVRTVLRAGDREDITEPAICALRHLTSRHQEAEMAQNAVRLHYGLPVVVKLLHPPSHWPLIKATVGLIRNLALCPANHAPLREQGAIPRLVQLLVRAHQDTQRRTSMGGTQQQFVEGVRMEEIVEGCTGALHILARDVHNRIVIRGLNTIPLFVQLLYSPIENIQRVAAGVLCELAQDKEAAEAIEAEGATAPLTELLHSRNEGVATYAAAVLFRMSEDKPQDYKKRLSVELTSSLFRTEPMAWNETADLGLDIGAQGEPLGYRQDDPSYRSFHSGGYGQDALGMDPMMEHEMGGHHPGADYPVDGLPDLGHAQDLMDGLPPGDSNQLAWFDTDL

T1: δ-catenin (endogenous in parental LNCaP cells) (human (endogenous in LNCaP)) (UniProt Q9UQB3)
T1 sequence: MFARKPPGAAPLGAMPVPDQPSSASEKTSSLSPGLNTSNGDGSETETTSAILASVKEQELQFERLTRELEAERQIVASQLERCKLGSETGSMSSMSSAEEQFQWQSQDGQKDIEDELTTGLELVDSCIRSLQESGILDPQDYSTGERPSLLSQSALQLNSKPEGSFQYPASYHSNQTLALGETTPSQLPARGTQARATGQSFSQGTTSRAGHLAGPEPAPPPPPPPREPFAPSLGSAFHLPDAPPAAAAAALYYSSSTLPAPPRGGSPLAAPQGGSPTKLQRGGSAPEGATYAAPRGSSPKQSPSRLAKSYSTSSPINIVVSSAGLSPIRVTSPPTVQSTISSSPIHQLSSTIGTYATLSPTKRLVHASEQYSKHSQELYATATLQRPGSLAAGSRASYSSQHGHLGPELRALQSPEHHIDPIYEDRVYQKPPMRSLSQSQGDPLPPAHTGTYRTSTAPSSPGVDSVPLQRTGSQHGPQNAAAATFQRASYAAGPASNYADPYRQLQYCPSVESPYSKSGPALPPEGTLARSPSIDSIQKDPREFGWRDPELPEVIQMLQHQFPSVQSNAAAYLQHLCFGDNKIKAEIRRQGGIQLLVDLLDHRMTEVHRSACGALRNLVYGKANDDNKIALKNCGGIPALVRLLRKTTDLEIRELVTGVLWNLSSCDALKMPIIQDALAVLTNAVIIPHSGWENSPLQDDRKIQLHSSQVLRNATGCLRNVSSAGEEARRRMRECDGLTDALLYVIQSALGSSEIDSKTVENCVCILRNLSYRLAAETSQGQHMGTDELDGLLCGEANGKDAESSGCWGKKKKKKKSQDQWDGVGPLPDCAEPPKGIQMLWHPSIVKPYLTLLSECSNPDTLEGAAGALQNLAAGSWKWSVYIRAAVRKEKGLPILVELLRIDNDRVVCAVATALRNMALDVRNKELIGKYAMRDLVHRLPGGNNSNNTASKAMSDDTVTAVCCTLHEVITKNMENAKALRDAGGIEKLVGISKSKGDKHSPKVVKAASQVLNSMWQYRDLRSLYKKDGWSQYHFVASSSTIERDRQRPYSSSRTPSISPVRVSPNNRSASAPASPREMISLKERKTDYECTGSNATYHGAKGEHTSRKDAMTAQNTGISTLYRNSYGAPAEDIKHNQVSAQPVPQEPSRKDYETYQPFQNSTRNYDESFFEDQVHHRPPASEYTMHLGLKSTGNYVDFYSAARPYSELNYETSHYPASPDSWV

T2: p120 (human (endogenous in LNCaP)) (UniProt O60716)
T2 sequence: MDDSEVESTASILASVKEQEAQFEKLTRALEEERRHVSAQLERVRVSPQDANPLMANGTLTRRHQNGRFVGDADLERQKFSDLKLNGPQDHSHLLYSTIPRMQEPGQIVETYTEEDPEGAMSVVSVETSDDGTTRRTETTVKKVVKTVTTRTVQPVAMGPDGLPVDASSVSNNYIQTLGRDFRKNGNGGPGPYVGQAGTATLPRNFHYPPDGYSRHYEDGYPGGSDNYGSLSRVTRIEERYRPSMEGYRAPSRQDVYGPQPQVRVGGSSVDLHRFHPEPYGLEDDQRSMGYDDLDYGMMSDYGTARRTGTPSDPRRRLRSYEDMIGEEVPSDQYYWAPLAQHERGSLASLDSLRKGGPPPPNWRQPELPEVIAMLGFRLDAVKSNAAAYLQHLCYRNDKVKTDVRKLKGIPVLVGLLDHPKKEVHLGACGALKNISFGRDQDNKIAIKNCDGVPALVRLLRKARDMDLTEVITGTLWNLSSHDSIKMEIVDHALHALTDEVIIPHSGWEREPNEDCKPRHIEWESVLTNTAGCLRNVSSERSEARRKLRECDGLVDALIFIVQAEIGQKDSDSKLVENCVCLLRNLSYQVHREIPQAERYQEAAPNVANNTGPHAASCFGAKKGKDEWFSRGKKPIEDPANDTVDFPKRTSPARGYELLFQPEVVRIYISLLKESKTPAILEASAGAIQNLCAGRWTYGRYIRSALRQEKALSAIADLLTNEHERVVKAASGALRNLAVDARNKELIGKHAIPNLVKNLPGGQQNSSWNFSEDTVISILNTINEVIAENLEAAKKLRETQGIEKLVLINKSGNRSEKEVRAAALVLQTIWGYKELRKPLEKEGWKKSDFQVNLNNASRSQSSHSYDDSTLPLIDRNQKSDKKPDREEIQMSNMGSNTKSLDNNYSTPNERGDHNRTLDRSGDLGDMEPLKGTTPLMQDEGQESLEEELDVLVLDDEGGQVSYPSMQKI

B1: δ-catenin (endogenous in parental LNCaP cells) (protein, UniProt Q9UQB3 1-1225)
chain: T1 sequence

Columns and labels:
Assay in all cases: co-IP; lysates in NTEN buffer (100 mM NaCl, 20 mM Tris-HCl pH 8.0, 0.5 mM EDTA, 0.5% Nonidet P-40) of parental LNCaP cells (300 μg protein) and of the δ-catenin-overexpressing clone OE1b; incubated 4-16 hours with precipitating antibodies on protein A/G PLUS-agarose beads; IgG as control; SDS-PAGE and Western blot
[1] = target: T1, δ-catenin (endogenous in parental LNCaP cells) (human (endogenous in LNCaP))
[2] = target: T2, p120 (human (endogenous in LNCaP))
[3] = target: β-catenin (human (endogenous in LNCaP)) (UniProt P35222)
[4] = target: T2, p120 (human (endogenous in LNCaP)); remark: listed apart in the source

Row | Molecule | binding [1] | binding [2] | binding [3] | binding [4]
1 | β-catenin (from UniProt P35222 1-781) | binds | binds |  | 
2 | B1 |  |  | binds | binds
